# Reference: PubChem BioAssay AID504834 (National Center for Advancing Translational Sciences (NCATS), 2011)
# Out of some 320,000 compounds screened, about 22,000 (6.9%) were called active. Inconclusive results, whose numbers are uncertain, are shown with a selection of clear calls. Calls come from the whole dose curve; as a rule, active = well fitted inhibition curve with a large enough effect; inconclusive = small, poorly fitted or top-dose-only effect, or another doubt; inactive = no such curve, though single readings can be large or run the other way. A potency beside an inconclusive call is a rough fit, not a confirmed value.
# Test: Primary qHTS for delayed death inhibitors of the malarial parasite plastid, 96 hour incubation
# Details: P. falciparum luciferase reporter growth; series mostly up to 28.7 µM; activity change, negative = inhibition: at the top concentration
# Method in brief: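 Two-generation exposure (96 h) targets delayed-death phenotype. Reporter parasites carrying integrated firefly luciferase, in red cells at 2% hematocrit and 0.05% parasitemia final, kept at 37 C, 5% CO2; luminescence loss indicates inhibition.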
# % is set by controls: 0 for no effect and ±100 for the full control effect; potency is the fitted concentration of half-maximal effect.
Structure (SMILES),Potency,"activity change, negative = inhibition"
CNc1nc(NN)nc(Nc2ccccc2)n1,"inconclusive: 18.5 µM [inhibitor, single point]",
COC(=O)[C@@H]1CC[C@H](C)[C@@H](c2ccc(C)cc2)N1C(=O)c1ccc(/C=N/O[C@@H](C)c2cn([C@H](CO)Cc3ccccc3)nn2)cc1,active: 4.65 µM,
COc1nn(-c2ccccc2)c(=O)c(Cl)c1Cl,"inconclusive: 18.5 µM [inhibitor, single point]",
C=CCc1ccc(OCC(O)CN2CCN(Cc3ccc(Cl)cc3)CC2)c(OC)c1 (stereo unspecified),"inconclusive: 8.28 µM [inhibitor, partial curve, poor fit]",
COc1ccc(S(=O)(=O)N(C)C)cc1NC(C)C(=O)Nc1cccc(C#N)c1 (stereo unspecified),"inconclusive: 1.65 µM [inhibitor, full curve]",
O=C(OCC(=O)N1CCN(C(=O)c2ccco2)CC1)c1ccccc1C(=O)c1ccccc1,"inconclusive: 11.7 µM [inhibitor, partial curve, poor fit]",
Cc1cccc(-n2cc[nH]c2=S)c1C,,inactive: -8.92%
CCN(Cc1ccccc1)C(=O)c1oc2ccc(C)cc2c1C,"inconclusive: 4.15 µM [inhibitor, single point]",
CN(C)CCNC(=O)c1cccn(Cc2cc(C(F)(F)F)cc(C(F)(F)F)c2)c1=O,"inconclusive: 0.0029 µM [inhibitor, full curve, poor fit]",
Cc1cc(=O)[nH]c(SCC(=O)c2ccc(O)c(O)c2)n1,"inconclusive: 4.15 µM [inhibitor, single point]",
CN(CC(=O)Nc1cccc(F)c1)C(=O)c1ccccc1OCCOc1ccccc1,"inconclusive: 11.7 µM [inhibitor, partial curve, poor fit]",
Cn1c(=O)n(C)c2cc(N3CCCCC3)c(NC(=O)c3cccc(Cl)c3)cc21,"inconclusive: 0.465 µM [inhibitor, full curve, poor fit]",
COC(=O)C1C(=O)c2c(n[nH]c2C)CC1(C)C (stereo unspecified),"inconclusive: 11.7 µM [inhibitor, partial curve, poor fit]",
CSc1nc(C)c(C(=O)C[n+]2ccccc2C)cc1C#N,"inconclusive: 10.4 µM [inhibitor, single point]",
CCOC(=O)c1sc(Nc2ccc(OCC)cc2)nc1C,,inactive: 3.79%
COc1ccc(N2CCN(C(=O)CCC(=O)N3Cc4ccccc4Oc4ncccc43)CC2)cc1,"inconclusive: 9.28 µM [inhibitor, partial curve, poor fit]",
COc1ccc(CCC(=O)NCc2cccc(C(F)(F)F)c2)cc1,,inactive: 31.4%
CCC(=O)c1cc(F)ccc1OCC(=O)Nc1ccc2c(c1)OCCO2,,inactive: -52.7%
Cc1cc(C)n(-c2nc(SCCN(C)C)c3c4c(sc3n2)CCCC4)n1,active: 11.7 µM,
COc1ccccc1Nc1nc(NCCC(C)C)nc(N)c1[N+](=O)[O-],"inconclusive: 0.928 µM [inhibitor, full curve, poor fit]",
Cc1nn(-c2cccc(C(F)(F)F)c2)c(=O)c2ccccc12,,inactive: 2.05%
CC(=O)N1CCN(S(=O)(=O)c2cccc(C(=O)NCCc3ccc(Cl)cc3)c2)CC1,"inconclusive: 0.262 µM [inhibitor, full curve, poor fit]",

Structure (SMILES),Potency,"activity change, negative = inhibition"
COc1cc(-c2nnc(SCc3cccnc3)n2C)cc(OC)c1O,"inconclusive: 0.0828 µM [inhibitor, full curve, poor fit]",
COc1ccc(CC(=O)Nc2ccc(S(=O)(=O)N3CCCC3)cc2)c(OC)c1,"inconclusive: 4.65 µM [inhibitor, single point]",
CCC(C)[C@H]1CNCCN1CCc1cccc(F)c1 (stereo partly specified),,inactive: 68.1%
O=C(Nc1ccc(O)c(-c2nc3ccccc3o2)c1)C1(c2ccc(Cl)cc2)CCCC1,"inconclusive: 10.4 µM [inhibitor, single point]",
CCNc1nc(NCC)nc(N/N=C/c2ccc([N+](=O)[O-])o2)n1,active: 4.15 µM,
CC1(C)Cc2c(c(N3CCCC3)nc3sc4c(N5CCNCC5)ncnc4c23)CO1,"inconclusive: 0.0329 µM [inhibitor, partial curve, poor fit]",
O=C(COC(=O)CNC(=O)c1ccc(Br)cc1)Nc1nnc(-c2ccccc2)o1,"inconclusive: 1.04 µM [inhibitor, full curve, poor fit]",
CCc1cccc(C)c1NC(=O)CN1CCN(S(=O)(=O)c2ccc(C(C)(C)C)cc2)CC1,active: 0.928 µM,
Cn1c(=O)cc(SCC(=O)NCC2CCCO2)c2ccccc21 (stereo unspecified),"inconclusive: 6.57 µM [inhibitor, partial curve, poor fit]",
COc1cc(C)c(Cc2cnc(N)nc2N)cc1OC,active: 2.69 µM,
O=c1c2sccc2nc(SCc2cc(=O)n3cc(Cl)ccc3n2)n1-c1ccc(F)cc1,"inconclusive: 18.5 µM [inhibitor, partial curve, poor fit]",
Cc1ccc(N(CC(=O)NC2CCC(C)CC2)S(=O)(=O)c2cccnc2)cc1 (stereo unspecified),"inconclusive: 18.5 µM [inhibitor, single point]",
CC(CCc1ccccc1)NC(=O)/C=C/c1ccc(F)cc1 (stereo unspecified),"inconclusive: 3.7 µM [inhibitor, single point]",
CCCCOc1ccc(NC(=O)c2cc(F)c(F)cc2Cl)cc1,"inconclusive: 11.7 µM [inhibitor, single point]",
OC(CNC1CCCCC1)CNC1CCCCC1,"inconclusive: 18.5 µM [inhibitor, single point]",
O=[N+]([O-])c1cc(-c2nc(-c3ccncc3)no2)cc([N+](=O)[O-])c1,active: 1.85 µM,
CN(C)C1(CNC(=O)Nc2ccccc2)CCCCC1,,inactive: 19.2%
Cc1cc(C)c2c(NC(=O)CCl)nn(C)c2n1,active: 1.85 µM,
COc1ccc2[nH]c(C(=O)NCCCn3ccnc3)cc2c1,"inconclusive: 10.4 µM [inhibitor, single point]",
COc1ccc(OCC(=O)NCc2cccnc2)cc1,"inconclusive: 0.131 µM [inhibitor, full curve, poor fit]",
O=C(Nc1ccc(Cl)cn1)C1CC1,,inactive: 0%
COc1ccc(-c2noc(CN(C)Cc3ccccc3)n2)cc1,"inconclusive: 18.5 µM [inhibitor, single point]",

Structure (SMILES),Potency,"activity change, negative = inhibition"
CCN(CC)CCN(Cc1cc2cc3c(cc2[nH]c1=O)OCCO3)C(=S)NC,,inactive: 0%
CCOc1ccc(CCNC(=O)COC(=O)c2cccc(OC)c2O)cc1OCC,"inconclusive: 10.4 µM [inhibitor, partial curve, poor fit]",
Cc1ccc(C)c(C(=O)CSc2nnnn2C(C)C)c1,"inconclusive: 0.0738 µM [inhibitor, full curve, poor fit]",
Clc1cc(Cl)cc(CN2CCSCC2)c1,"inconclusive: 0.415 µM [inhibitor, full curve, poor fit]",
COc1cc(NC(=O)c2cc3nc(C4CC4)cc(C(F)(F)F)n3n2)c(OC)cc1Cl,"inconclusive: 0.465 µM [inhibitor, partial curve, poor fit]",
O=C(Nc1nc(-c2cccs2)c(-c2cccs2)s1)C1CCCC1,"inconclusive: 5.22 µM [inhibitor, single point]",
COc1ccc(NC(=O)c2ccc3c(=O)n(-c4ccc(OC)cc4OC)c(=S)[nH]c3c2)c(OC)c1,"inconclusive: 6.57 µM [inhibitor, partial curve]",
CC1CCN(C2(O)C(=O)Nc3ccc(Br)cc32)CC1 (stereo unspecified),"inconclusive: 0.0074 µM [inhibitor, full curve, poor fit]",
CCn1c(=O)c(=O)n(CC)c2cc(S(=O)(=O)N3CCc4ccccc43)ccc21,active: 13.1 µM,
C=CCN1c2ccccc2[C@]23C[C@@H](C(=O)OC)N(C(=O)CC(C)C)C2=NC(C(=O)OC)=C(C(=O)OC)[C@H]13,"inconclusive: 18.5 µM [inhibitor, single point]",
COc1ccccc1-c1c(C)oc2c(CN3CCCCC3C)c(O)ccc2c1=O (stereo unspecified),"inconclusive: 18.5 µM [inhibitor, single point]",
C(=N\Nc1nc2ccccc2[nH]1)/c1ccc2c(c1)OCCO2,"inconclusive: 3.29 µM [inhibitor, full curve, poor fit]",
O=S(=O)(NCC(O)COCc1ccco1)c1cccs1 (stereo unspecified),,inactive: -11.4%
Cc1ccc(NC(=O)C2CCN(S(=O)(=O)c3ccc4c(c3)CC(C)N4C(=O)C3CCC3)CC2)nc1 (stereo unspecified),"inconclusive: 10.4 µM [inhibitor, partial curve]",
Cc1ccccc1C(=O)Oc1ccccc1N1C(=O)C2CC=CCC2C1=O (stereo unspecified),"inconclusive: 18.5 µM [inhibitor, single point]",
COC(=O)C1=C(c2ccc(Cl)c(C(F)(F)F)c2)C[C@@H]2CC[C@H]1N2C(=O)NC(C)C,"inconclusive: 10.4 µM [inhibitor, single point]",
CCN(CC)C(=O)NC1CC2CCCC(C1)N2Cc1ccccc1 (stereo unspecified),"inconclusive: 1.65 µM [inhibitor, partial curve, poor fit]",
Cc1cc(C)c(S(C)(=O)=O)c(S(=O)(=O)c2ccc(Cl)cc2)n1,"inconclusive: 10.4 µM [inhibitor, single point]",
COc1ccc(N=C2C(=O)N3c4c(cccc42)C(C)=CC3(C)C)cc1,active: 11.7 µM,
COc1ccc(N(CC(=O)NCc2ccco2)C(=O)CCC(=O)Nc2nccs2)c(OC)c1,"inconclusive: 14.7 µM [inhibitor, partial curve, poor fit]",
Cc1ccc(N(CC(=O)NC2CCCCC2)C(=O)Cn2nnc(-c3ccc(C)o3)n2)cc1,,inactive: -36.5%
COc1ccc(-c2csc(/C=C/c3ccc4c(c3)OCO4)n2)cc1OC,,inactive: 0%

# In the list so far, these have bromine:
Structure (SMILES),Potency,"activity change, negative = inhibition"
O=C(COC(=O)CNC(=O)c1ccc(Br)cc1)Nc1nnc(-c2ccccc2)o1,"inconclusive: 1.04 µM [inhibitor, full curve, poor fit]",
CC1CCN(C2(O)C(=O)Nc3ccc(Br)cc32)CC1 (stereo unspecified),"inconclusive: 0.0074 µM [inhibitor, full curve, poor fit]",

# Reformatted: two of the compounds above.
Structure (SMILES) | Potency | activity change, negative = inhibition
CN(C)C1(CNC(=O)Nc2ccccc2)CCCCC1 |  | inactive: 19.2%
Cc1cc(C)c2c(NC(=O)CCl)nn(C)c2n1 | active: 1.85 µM | 
